Laboratory results: patent US20230390352A1, “COMPOSITION COMPRISING SALVIA MILTIORRHIZA EXTRACT AS ACTIVE INGREDIENT FOR PREVENTION AND TREATMENT OF DEPRESSION IN MENOPAUSAL WOMEN” (UNDBIO.CO.,LTD, priority 2020, published 2023)
At least one compound was matched to its structure with a doubt left.

Experiment: stability (content) of ingredients included in the Salvia miltiorrhiza extract on storage
Type: physicochemical
Conditions: for Content (mg/g) of ingredient after 5 days of storage at room temperature of extract: 5 days at room temperature; for Content (mg/g) of ingredient in Salvia miltiorrhiza extract: before storage
Experimental: When the Salvia miltiorrhiza extract was stored at 95° C. for 0 hour, 1 hour, 2 hours, 3 hours, 4 hours and 6 hours, in order to confirm whether the stability of 5 types of ingredients of which the female hormone regulatory ability has been confirmed in Example embodiment 2-1 above was maintained, the ingredient contents of the stored samples were analyzed by time. In addition, when the Salvia miltiorrhiza extract was stored at room temperature for 1 day, 2 days, 3 days, 4 days and 5 days, the stability of the ingredients was confirmed through analysis of the contents of 5 types of ingredients included in the Salvia miltiorrhiza extract.
In addition, results of comparing the content of each ingredient included in the Salvia miltiorrhiza extract at various concentrations (0, 50, 70, and 100% ethanol) and the content after 5 days of storage at room temperature were shown together in Table 1 below.

C[C@H]1COC2=C1C(=O)C(=O)c1c2ccc2c1CCCC2(C)C [Cryptotanshinone]
Content (mg/g) of ingredient after 5 days of storage at room temperature of extract (extract made with 0% EtOH): 0.00 mg/g
Content (mg/g) of ingredient in Salvia miltiorrhiza extract (extract made with 0% EtOH): 0.11 mg/g
Content (mg/g) of ingredient after 5 days of storage at room temperature of extract (extract made with 50% EtOH): 0.24 mg/g
Content (mg/g) of ingredient in Salvia miltiorrhiza extract (extract made with 50% EtOH): 0.63 mg/g
Content (mg/g) of ingredient after 5 days of storage at room temperature of extract (extract made with 70% EtOH): 0.11 mg/g
Content (mg/g) of ingredient in Salvia miltiorrhiza extract (extract made with 70% EtOH): 3.61 mg/g
Content (mg/g) of ingredient after 5 days of storage at room temperature of extract (extract made with 100% EtOH): 0.12 mg/g
Content (mg/g) of ingredient in Salvia miltiorrhiza extract (extract made with 100% EtOH): 3.22 mg/g
